# What was measured:
# [1] = LC-ESI-MSn of cholestenoic acids in mouse brain; settings: WT
# Text: Animals. Lxra,−/−β−/− mouse cell cultures were from the colony at the Department of Biosciences and Nutrition at Novum, Karolinska Institutet. Male and female wild-type and Lxrα−/−β−/− mice were generated as previously described (Alberti et al. J. Clin. Invest 2001:107(5), 565-73). Mice were back crossed onto a C57BL/6 background for 10 generations. Male Cyp7b1−/− mouse brain and plasma were from animals generated at the University of Edinburgh. Male mice homozygous for targeted disruption of the Cyp7b1 gene congenic on the C57BL/6 genetic background (>15 generations backcrossed to C57BL/6) and wild-type littermate controls were generated from Cyp7b1−/+ crosses. Male cyp27a1−/− mouse tissue and plasma was purchased from The Jackson Laboratory (ME, USA) strain B6.129-Cyp27a1^tm1Elt/J. The Cyp27a1−/− colony was backcrossed to C57BL/6J inbred mice for approximately 12 generations by the donating investigator prior to sending to The Jackson Laboratory Repository. Upon arrival, mice were bred to C57BL/6J inbred mice for at least one generation to establish the colony. Wild type animals from the colony were used as controls.
# Extraction of Sterols. […]
# Charge Tagging of Sterols. The sterols were charge-tagged with the GP-hydrazine to enhance their response when analysed by LC-ESI-MS and tandem mass spectrometry (MS^n).
# [2] = LC-ESI-MSn of cholestenoic acids in mouse plasma; settings: WT
Structure (SMILES),Mean concentration in brain ± SD ([1]; 13 months),Mean concentration in brain ± SD ([1]; 23 months),Mean concentration in plasma ± SD ([2]; 13 months),Mean concentration in plasma ± SD ([2]; 23 months)
"CC(CCC[C@@H](C)[C@H]1CC[C@H]2[C@@H]3CC=C4C[C@@H](O)CC[C@]4(C)[C@H]3CC[C@]12C)C(=O)O (stereo partly drawn) [3β-HCA, 3β-hydroxycholest-5-en-26-oic acid]",0.01 ± 0.00 ng/mg,0.01 ± 0.00 ng/mg,1.97 ± 0.72 ng/mL,1.75 ± 0.50 ng/mL
"CC(CCC[C@@H](C)[C@H]1CC[C@H]2[C@@H]3[C@H](O)CC4=CC(=O)CC[C@]4(C)[C@H]3CC[C@]12C)C(=O)O (stereo partly drawn) [7αH,3O-CA, 7α-hydroxy-3-oxocholest-4-en-26-oic acid]",–,–,25.89 ± 10.91 ng/mL,25.19 ± 9.44 ng/mL

# Reference: patent US20190201419A1, “COMPOUND AND METHOD FOR THE TREATMENT AND DIAGNOSIS OF NEURODEGENERATIVE CONDITIONS” (Swansea University, priority 2013, published 2019)
